Reference: patent US20230031629A1
Results are given in words; binding and its absence hold for the method and conditions named. Some entries that bind do so weakly or less than the wild type.

Molecular target: T1, human CD300f (human) (UniProt Q8TDQ1)
T1 sequence (looked up): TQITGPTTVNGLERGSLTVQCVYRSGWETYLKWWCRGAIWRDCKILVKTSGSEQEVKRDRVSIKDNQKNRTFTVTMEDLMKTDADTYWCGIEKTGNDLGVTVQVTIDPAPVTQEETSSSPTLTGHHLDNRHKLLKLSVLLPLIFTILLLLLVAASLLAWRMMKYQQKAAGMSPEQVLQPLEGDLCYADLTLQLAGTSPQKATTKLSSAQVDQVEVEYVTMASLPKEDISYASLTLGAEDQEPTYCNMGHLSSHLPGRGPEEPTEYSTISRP
Assay: flow cytometry on U937 cells (cell surface CD300f)

binding: binds
B1: chimeric DCR-2 (antibody, human IgG1, kappa, V domains shown)
VH: ESGPMESGGGLVQPGGPLKLSCAASGFGFSGSWMSWVRQAPGKGLEWIGQINPDSSTINYTPSLKDKFIISRDNAKNTLYLQINKVRSEDTALYYCARRGFFEGYSAWFAYWGQGTLVTVSA
VL: DILMTQTPKFLLVSAGDRVTITCKASQSVSNDVAWYQQKPGQSPSLLIYYASNRNTGVPDRFTGSGYETDFTFTISTVQAEDLAVYFCQQDYTSPWTFGGGTKLEIKR
